According to the supplement of paper PMC12595434, “Development of retinoid nuclear receptor pathway antagonists through targeting aldehyde dehydrogenase 1A3” (iScience, 2025):
The list shows a part of the results. The data scatter; read single values as rough.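 Tm was set to 64 °C where no melting was found, and many curves are irregular.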

The chains behind the UniProt entries cited, without tags or fusion partners. Where a name states a change or a piece, a line headed by the entry shows the natural chain unless it says otherwise.
UniProt Q9H2G2: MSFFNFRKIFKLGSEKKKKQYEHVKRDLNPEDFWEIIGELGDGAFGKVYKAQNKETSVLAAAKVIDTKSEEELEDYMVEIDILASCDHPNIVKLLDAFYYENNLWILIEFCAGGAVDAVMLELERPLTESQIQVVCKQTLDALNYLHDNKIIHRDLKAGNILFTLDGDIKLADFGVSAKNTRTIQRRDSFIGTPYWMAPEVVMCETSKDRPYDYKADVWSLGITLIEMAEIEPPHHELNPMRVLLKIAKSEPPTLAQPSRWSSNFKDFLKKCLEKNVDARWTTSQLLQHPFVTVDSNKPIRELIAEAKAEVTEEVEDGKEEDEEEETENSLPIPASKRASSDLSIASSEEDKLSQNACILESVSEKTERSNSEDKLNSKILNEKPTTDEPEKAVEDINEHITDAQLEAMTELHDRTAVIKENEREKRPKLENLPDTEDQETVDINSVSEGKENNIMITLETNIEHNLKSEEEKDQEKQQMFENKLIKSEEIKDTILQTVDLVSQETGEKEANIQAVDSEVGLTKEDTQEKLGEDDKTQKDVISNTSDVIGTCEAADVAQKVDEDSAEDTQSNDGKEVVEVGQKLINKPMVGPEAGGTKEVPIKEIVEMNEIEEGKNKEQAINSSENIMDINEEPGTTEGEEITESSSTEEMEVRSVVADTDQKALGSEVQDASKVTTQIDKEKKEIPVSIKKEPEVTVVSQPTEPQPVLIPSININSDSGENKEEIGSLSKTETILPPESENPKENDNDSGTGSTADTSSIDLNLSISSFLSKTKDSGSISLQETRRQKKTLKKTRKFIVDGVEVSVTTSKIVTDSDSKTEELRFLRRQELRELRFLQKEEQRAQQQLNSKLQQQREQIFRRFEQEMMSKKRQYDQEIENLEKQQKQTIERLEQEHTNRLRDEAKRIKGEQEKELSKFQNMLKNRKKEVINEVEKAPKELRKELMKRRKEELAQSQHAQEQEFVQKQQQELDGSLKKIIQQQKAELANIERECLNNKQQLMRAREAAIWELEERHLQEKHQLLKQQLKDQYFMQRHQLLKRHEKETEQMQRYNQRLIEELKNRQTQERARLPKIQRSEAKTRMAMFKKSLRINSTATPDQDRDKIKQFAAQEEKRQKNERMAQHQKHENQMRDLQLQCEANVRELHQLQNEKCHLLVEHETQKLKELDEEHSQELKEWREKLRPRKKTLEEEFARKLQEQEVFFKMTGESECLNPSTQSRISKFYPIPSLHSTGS
UniProt Q9H0C8: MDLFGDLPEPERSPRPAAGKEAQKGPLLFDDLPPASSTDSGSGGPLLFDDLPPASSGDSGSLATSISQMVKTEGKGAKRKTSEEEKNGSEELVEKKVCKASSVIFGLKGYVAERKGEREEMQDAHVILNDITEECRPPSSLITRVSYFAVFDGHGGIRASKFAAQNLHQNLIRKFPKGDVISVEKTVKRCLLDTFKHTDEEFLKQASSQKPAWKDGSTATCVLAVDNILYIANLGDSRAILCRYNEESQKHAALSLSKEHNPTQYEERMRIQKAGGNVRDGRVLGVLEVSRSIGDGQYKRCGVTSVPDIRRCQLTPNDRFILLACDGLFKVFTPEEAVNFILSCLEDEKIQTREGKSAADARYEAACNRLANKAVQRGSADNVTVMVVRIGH
UniProt Q9C004: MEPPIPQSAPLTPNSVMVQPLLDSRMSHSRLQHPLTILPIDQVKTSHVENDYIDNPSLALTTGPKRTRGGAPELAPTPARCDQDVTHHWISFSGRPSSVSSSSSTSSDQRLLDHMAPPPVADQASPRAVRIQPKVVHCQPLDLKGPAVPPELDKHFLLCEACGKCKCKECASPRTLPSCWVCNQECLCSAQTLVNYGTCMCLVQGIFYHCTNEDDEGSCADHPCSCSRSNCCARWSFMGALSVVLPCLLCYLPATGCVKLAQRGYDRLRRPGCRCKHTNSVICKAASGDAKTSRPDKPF
UniProt Q9H3C7, whole entry: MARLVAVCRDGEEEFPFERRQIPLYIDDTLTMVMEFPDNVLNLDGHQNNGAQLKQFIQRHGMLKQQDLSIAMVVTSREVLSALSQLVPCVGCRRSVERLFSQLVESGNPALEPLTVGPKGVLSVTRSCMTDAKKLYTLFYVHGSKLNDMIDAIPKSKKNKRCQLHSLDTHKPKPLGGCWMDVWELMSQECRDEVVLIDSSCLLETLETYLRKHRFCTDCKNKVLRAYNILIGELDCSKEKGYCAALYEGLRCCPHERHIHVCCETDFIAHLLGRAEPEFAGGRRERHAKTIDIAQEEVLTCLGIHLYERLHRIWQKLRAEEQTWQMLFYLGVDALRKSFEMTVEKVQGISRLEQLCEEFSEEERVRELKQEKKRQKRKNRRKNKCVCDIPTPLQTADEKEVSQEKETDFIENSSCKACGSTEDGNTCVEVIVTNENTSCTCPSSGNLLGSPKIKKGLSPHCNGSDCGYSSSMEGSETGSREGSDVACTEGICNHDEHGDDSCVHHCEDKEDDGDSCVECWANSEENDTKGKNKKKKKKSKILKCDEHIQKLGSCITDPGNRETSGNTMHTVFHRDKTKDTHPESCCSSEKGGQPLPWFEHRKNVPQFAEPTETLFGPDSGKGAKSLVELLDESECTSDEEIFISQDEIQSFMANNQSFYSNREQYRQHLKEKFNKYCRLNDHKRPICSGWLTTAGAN
UniProt Q9H0Z9: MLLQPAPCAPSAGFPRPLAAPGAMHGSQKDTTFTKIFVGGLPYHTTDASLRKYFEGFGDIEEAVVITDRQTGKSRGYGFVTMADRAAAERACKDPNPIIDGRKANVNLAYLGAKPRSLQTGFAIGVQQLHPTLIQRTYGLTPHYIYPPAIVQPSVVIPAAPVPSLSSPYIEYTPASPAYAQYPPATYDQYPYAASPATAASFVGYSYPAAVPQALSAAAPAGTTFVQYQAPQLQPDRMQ
UniProt Q9H4A3: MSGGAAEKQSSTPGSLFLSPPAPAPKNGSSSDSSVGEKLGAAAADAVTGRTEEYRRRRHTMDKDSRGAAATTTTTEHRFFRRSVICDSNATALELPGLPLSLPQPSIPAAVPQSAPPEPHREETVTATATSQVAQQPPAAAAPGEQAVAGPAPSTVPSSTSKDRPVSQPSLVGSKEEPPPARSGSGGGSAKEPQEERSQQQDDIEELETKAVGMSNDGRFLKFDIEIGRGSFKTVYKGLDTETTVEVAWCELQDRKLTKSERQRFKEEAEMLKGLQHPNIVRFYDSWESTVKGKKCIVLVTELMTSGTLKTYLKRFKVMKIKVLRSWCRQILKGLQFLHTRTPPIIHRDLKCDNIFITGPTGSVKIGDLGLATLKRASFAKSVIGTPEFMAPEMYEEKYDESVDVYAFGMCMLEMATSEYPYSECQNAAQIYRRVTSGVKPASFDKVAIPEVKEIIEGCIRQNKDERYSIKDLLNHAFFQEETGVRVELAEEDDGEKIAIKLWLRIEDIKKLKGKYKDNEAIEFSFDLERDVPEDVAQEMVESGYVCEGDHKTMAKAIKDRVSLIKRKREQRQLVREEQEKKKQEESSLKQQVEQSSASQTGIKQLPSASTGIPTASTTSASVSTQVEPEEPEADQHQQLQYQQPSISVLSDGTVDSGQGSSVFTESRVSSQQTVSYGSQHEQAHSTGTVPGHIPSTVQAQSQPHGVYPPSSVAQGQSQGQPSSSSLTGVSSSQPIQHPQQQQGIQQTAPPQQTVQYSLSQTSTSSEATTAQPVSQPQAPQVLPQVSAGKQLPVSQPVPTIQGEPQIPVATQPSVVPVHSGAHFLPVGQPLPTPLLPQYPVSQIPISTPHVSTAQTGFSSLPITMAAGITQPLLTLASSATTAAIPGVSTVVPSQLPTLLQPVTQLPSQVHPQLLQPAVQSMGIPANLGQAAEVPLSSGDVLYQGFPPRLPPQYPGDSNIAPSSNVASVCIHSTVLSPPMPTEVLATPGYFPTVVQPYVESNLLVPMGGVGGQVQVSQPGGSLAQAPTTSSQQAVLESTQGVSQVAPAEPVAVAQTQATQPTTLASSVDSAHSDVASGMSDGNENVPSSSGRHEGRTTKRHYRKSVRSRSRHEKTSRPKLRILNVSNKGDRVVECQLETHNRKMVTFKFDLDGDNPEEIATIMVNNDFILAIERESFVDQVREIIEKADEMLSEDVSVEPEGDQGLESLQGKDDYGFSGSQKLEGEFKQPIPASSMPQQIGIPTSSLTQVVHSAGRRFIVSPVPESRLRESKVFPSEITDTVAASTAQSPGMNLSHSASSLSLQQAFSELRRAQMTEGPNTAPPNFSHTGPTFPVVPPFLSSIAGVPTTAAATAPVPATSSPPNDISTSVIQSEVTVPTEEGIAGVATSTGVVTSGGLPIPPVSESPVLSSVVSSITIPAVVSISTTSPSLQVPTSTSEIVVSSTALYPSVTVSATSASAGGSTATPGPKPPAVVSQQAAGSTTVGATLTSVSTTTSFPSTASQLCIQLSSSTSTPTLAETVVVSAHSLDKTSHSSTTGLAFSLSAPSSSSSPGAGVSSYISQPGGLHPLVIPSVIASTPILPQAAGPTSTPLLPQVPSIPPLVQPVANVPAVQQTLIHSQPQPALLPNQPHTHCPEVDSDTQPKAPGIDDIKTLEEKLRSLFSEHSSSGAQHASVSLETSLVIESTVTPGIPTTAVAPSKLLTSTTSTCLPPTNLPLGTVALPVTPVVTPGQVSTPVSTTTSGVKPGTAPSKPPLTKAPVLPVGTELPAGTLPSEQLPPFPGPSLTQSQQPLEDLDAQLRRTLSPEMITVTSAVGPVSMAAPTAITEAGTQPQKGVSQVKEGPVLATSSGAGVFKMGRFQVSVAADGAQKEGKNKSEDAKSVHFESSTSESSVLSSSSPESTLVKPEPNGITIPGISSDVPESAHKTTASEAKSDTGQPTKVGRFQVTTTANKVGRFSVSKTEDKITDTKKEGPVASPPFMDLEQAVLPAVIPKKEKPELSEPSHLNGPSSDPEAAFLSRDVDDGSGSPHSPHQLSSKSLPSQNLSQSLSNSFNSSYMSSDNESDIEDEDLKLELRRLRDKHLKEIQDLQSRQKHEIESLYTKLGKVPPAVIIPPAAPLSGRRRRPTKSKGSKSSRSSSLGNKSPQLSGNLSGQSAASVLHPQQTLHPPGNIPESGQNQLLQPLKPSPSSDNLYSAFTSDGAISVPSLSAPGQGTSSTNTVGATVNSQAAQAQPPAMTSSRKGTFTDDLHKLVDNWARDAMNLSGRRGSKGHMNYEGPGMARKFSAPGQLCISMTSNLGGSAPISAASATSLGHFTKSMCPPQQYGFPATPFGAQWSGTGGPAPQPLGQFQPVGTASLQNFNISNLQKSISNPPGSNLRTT
UniProt Q9H116: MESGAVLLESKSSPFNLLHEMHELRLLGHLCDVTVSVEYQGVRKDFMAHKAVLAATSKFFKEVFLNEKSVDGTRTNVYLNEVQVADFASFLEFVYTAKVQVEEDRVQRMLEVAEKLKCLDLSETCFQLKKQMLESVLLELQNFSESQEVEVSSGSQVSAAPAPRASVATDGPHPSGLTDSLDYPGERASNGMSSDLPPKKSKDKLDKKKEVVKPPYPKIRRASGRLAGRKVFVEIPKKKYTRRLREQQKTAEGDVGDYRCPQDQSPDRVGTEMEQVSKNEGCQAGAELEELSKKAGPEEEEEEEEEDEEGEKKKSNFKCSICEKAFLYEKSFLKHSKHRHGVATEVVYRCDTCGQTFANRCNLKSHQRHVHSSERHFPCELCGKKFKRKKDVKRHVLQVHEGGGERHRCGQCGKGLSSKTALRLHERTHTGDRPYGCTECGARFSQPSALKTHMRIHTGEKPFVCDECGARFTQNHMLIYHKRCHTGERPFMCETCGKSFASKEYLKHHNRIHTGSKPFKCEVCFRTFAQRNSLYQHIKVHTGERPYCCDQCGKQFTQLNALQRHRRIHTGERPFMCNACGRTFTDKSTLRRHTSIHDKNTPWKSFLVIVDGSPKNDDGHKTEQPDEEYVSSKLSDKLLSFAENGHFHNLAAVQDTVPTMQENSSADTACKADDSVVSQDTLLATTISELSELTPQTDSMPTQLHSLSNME
UniProt Q9H0R1: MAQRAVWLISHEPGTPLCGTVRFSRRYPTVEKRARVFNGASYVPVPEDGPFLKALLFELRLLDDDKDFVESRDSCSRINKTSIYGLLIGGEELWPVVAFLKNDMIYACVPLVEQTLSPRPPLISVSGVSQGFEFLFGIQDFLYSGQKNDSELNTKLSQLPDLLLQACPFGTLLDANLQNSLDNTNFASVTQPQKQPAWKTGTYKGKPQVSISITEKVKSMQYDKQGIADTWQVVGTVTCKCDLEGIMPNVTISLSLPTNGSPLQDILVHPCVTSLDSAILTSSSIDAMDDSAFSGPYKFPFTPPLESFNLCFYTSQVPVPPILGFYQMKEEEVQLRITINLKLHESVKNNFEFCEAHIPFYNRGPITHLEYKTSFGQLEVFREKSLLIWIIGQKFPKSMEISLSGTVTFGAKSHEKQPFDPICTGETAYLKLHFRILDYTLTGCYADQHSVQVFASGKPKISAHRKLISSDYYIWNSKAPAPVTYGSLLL

Compound: CCc1cnccc1C(=O)Nc1cc2c(cc1F)NC(=O)CC2
Assay: melting temperature shift (DMSO Tm minus MBE1-treated Tm) in cellular thermal proteome profiling; higher = less thermal stabilization by MBE1 (negative = stabilized by MBE1)
Settings: A375

Work on RABEP2 (UniProt Q9H5N1) yielded a melting temperature shift (MBE1 concentration: 100 nM) of -0.0423 °C and a melting temperature shift (MBE1 concentration: 1 uM) of -0.226 °C.

Work on BRD8 (UniProt Q9H0E9) yielded a melting temperature shift (MBE1 concentration: 100 nM) of -0.971 °C and a melting temperature shift (MBE1 concentration: 1 uM) of -0.244 °C.

CSTF2T (UniProt Q9H0L4) was tested, and the melting temperature shift (MBE1 concentration: 100 nM) was 2.49 °C and the melting temperature shift (MBE1 concentration: 1 uM) was -0.409 °C.

For IRF2BPL (UniProt Q9H1B7), the melting temperature shift (MBE1 concentration: 100 nM) was -0.346 °C and the melting temperature shift (MBE1 concentration: 1 uM) was -0.372 °C.

In the case of PARP12 (UniProt Q9H0J9), the melting temperature shift (MBE1 concentration: 100 nM) is reported as -0.186 °C and the melting temperature shift (MBE1 concentration: 1 uM) is reported as -0.429 °C.

For PUS7L (UniProt Q9H0K6), the melting temperature shift (MBE1 concentration: 100 nM) was 0.818 °C and the melting temperature shift (MBE1 concentration: 1 uM) was -0.104 °C.

With KATNBL1 (UniProt Q9H079) the melting temperature shift (MBE1 concentration: 100 nM) was 0.287 °C and the melting temperature shift (MBE1 concentration: 1 uM) was 0.971 °C.

With CEP41 (UniProt Q9BYV8) the melting temperature shift (MBE1 concentration: 100 nM) was -0.612 °C and the melting temperature shift (MBE1 concentration: 1 uM) was -0.193 °C.

With MRPL9 (UniProt Q9BYD2) the melting temperature shift (MBE1 concentration: 100 nM) was -3.87 °C and the melting temperature shift (MBE1 concentration: 1 uM) was -3.21 °C.

With SRR (UniProt Q9GZT4) the melting temperature shift (MBE1 concentration: 100 nM) was 0.58 °C and the melting temperature shift (MBE1 concentration: 1 uM) was 0.653 °C.

With SLK (UniProt Q9H2G2) the melting temperature shift (MBE1 concentration: 100 nM) was 0.641 °C and the melting temperature shift (MBE1 concentration: 1 uM) was 0.0794 °C.

ILKAP (UniProt Q9H0C8) showed a melting temperature shift (MBE1 concentration: 100 nM) of -0.0047 °C and a melting temperature shift (MBE1 concentration: 1 uM) of 1.84 °C.

CDC42EP4 (UniProt Q9H3Q1) showed a melting temperature shift (MBE1 concentration: 100 nM) of -1.57 °C and a melting temperature shift (MBE1 concentration: 1 uM) of 0.104 °C.

With EHD4 (UniProt Q9H223) the melting temperature shift (MBE1 concentration: 100 nM) was 0.299 °C and the melting temperature shift (MBE1 concentration: 1 uM) was 0.0916 °C.

RNPEP (UniProt Q9H4A4) gave a melting temperature shift (MBE1 concentration: 100 nM) of -0.215 °C and a melting temperature shift (MBE1 concentration: 1 uM) of 0.0427 °C.

TMEM206 (UniProt Q9H813) gave a melting temperature shift (MBE1 concentration: 100 nM) of -0.501 °C and a melting temperature shift (MBE1 concentration: 1 uM) of 0.22 °C.

In the case of UniProt Q9BZG1, the melting temperature shift (MBE1 concentration: 100 nM) is reported as -0.966 °C and the melting temperature shift (MBE1 concentration: 1 uM) is reported as -0.0469 °C.

QRSL1 (UniProt Q9H0R6) was tested, and the melting temperature shift (MBE1 concentration: 100 nM) was -0.715 °C and the melting temperature shift (MBE1 concentration: 1 uM) was 0.155 °C.

Target MRPL4 (UniProt Q9BYD3) has a melting temperature shift (MBE1 concentration: 100 nM) of -0.586 °C and a melting temperature shift (MBE1 concentration: 1 uM) of -0.0488 °C.

Work on UniProt Q9H8S9 yielded a melting temperature shift (MBE1 concentration: 100 nM) of -0.67 °C and a melting temperature shift (MBE1 concentration: 1 uM) of 0.0402 °C.

Target PHAX (UniProt Q9H814) has a melting temperature shift (MBE1 concentration: 100 nM) of -0.248 °C and a melting temperature shift (MBE1 concentration: 1 uM) of 0.287 °C.

For UniProt Q9C086, the melting temperature shift (MBE1 concentration: 100 nM) was -0.551 °C and the melting temperature shift (MBE1 concentration: 1 uM) was -0.301 °C.

Target TRIM4 (UniProt Q9C037) has a melting temperature shift (MBE1 concentration: 100 nM) of 1.83 °C and a melting temperature shift (MBE1 concentration: 1 uM) of -0.464 °C.

With OSBPL3 (UniProt Q9H4L5) the melting temperature shift (MBE1 concentration: 100 nM) was -0.952 °C and the melting temperature shift (MBE1 concentration: 1 uM) was -0.0769 °C.

HELZ2 (UniProt Q9BYK8) showed a melting temperature shift (MBE1 concentration: 100 nM) of 0.861 °C and a melting temperature shift (MBE1 concentration: 1 uM) of 2.48 °C.

UniProt Q9C004 gave a melting temperature shift (MBE1 concentration: 100 nM) of -0.142 °C and a melting temperature shift (MBE1 concentration: 1 uM) of 17.5 °C.

In the case of WDR55 (UniProt Q9H6Y2), the melting temperature shift (MBE1 concentration: 100 nM) is reported as -0.624 °C and the melting temperature shift (MBE1 concentration: 1 uM) is reported as 0.487 °C.

Work on OSBPL2 (UniProt Q9H1P3) yielded a melting temperature shift (MBE1 concentration: 100 nM) of -0.781 °C and a melting temperature shift (MBE1 concentration: 1 uM) of -0.414 °C.

With FAM129A (UniProt Q9BZQ8) the melting temperature shift (MBE1 concentration: 100 nM) was -0.0916 °C and the melting temperature shift (MBE1 concentration: 1 uM) was -0.69 °C.

Work on MRPL18 (UniProt Q9H0U6) yielded a melting temperature shift (MBE1 concentration: 100 nM) of -0.421 °C and a melting temperature shift (MBE1 concentration: 1 uM) of 1.74 °C.

Work on PIGU (UniProt Q9H490) yielded a melting temperature shift (MBE1 concentration: 100 nM) of -0.0488 °C and a melting temperature shift (MBE1 concentration: 1 uM) of -0.116 °C.

With GGNBP2 (UniProt Q9H3C7) the melting temperature shift (MBE1 concentration: 100 nM) was -0.899 °C and the melting temperature shift (MBE1 concentration: 1 uM) was 0.526 °C.

For UniProt Q9H6S1, the melting temperature shift (MBE1 concentration: 100 nM) was 0.259 °C and the melting temperature shift (MBE1 concentration: 1 uM) was -0.0565 °C.

GOLPH3 (UniProt Q9H4A6) gave a melting temperature shift (MBE1 concentration: 100 nM) of -0.927 °C and a melting temperature shift (MBE1 concentration: 1 uM) of 0.293 °C.

PDCL3 (UniProt Q9H2J4) gave a melting temperature shift (MBE1 concentration: 100 nM) of -0.794 °C and a melting temperature shift (MBE1 concentration: 1 uM) of 1.16 °C.

For MTMR12 (UniProt Q9C0I1), the melting temperature shift (MBE1 concentration: 100 nM) was -1.32 °C and the melting temperature shift (MBE1 concentration: 1 uM) was -0.0488 °C.

For UniProt Q9H7X7, the melting temperature shift (MBE1 concentration: 100 nM) was -0.113 °C and the melting temperature shift (MBE1 concentration: 1 uM) was -0.588 °C.

In the case of UniProt Q9H4L4, the melting temperature shift (MBE1 concentration: 100 nM) is reported as -0.205 °C and the melting temperature shift (MBE1 concentration: 1 uM) is reported as -0.0448 °C.

With UniProt Q9C026 the melting temperature shift (MBE1 concentration: 100 nM) was 0.0122 °C and the melting temperature shift (MBE1 concentration: 1 uM) was 0.786 °C.

With CCDC90B (UniProt Q9GZT6) the melting temperature shift (MBE1 concentration: 100 nM) was -2.33 °C and the melting temperature shift (MBE1 concentration: 1 uM) was -1.39 °C.

In the case of TMX1 (UniProt Q9H3N1), the melting temperature shift (MBE1 concentration: 100 nM) is reported as -1.75 °C and the melting temperature shift (MBE1 concentration: 1 uM) is reported as -1.55 °C.

For UniProt Q9H0Z9, the melting temperature shift (MBE1 concentration: 100 nM) was -0.595 °C and the melting temperature shift (MBE1 concentration: 1 uM) was -0.657 °C.

C20ORF27 (UniProt Q9GZN8) gave a melting temperature shift (MBE1 concentration: 100 nM) of -0.664 °C and a melting temperature shift (MBE1 concentration: 1 uM) of -0.677 °C.

For DOCK5 (UniProt Q9H7D0), the melting temperature shift (MBE1 concentration: 100 nM) was 0.379 °C and the melting temperature shift (MBE1 concentration: 1 uM) was -0.0366 °C.

In the case of ATP13A3 (UniProt Q9H7F0), the melting temperature shift (MBE1 concentration: 100 nM) is reported as -0.812 °C and the melting temperature shift (MBE1 concentration: 1 uM) is reported as -0.0469 °C.

For CUEDC2 (UniProt Q9H467), the melting temperature shift (MBE1 concentration: 100 nM) was -1.21 °C and the melting temperature shift (MBE1 concentration: 1 uM) was 0.311 °C.

SLC38A1 (UniProt Q9H2H9) showed a melting temperature shift (MBE1 concentration: 100 nM) of -0.0174 °C and a melting temperature shift (MBE1 concentration: 1 uM) of 0.131 °C.

With UniProt Q9H5H4 the melting temperature shift (MBE1 concentration: 100 nM) was -3.38 °C and the melting temperature shift (MBE1 concentration: 1 uM) was -2.83 °C.

With UniProt Q9H147 the melting temperature shift (MBE1 concentration: 100 nM) was -0.833 °C and the melting temperature shift (MBE1 concentration: 1 uM) was -0.73 °C.

With VPS16 (UniProt Q9H269) the melting temperature shift (MBE1 concentration: 100 nM) was 0.221 °C and the melting temperature shift (MBE1 concentration: 1 uM) was -0.226 °C.

For SIL1 (UniProt Q9H173), the melting temperature shift (MBE1 concentration: 100 nM) was -0.891 °C and the melting temperature shift (MBE1 concentration: 1 uM) was 0.852 °C.

With TOR3A (UniProt Q9H497) the melting temperature shift (MBE1 concentration: 100 nM) was -1.51 °C and the melting temperature shift (MBE1 concentration: 1 uM) was 0.443 °C.

CENPH (UniProt Q9H3R5) showed a melting temperature shift (MBE1 concentration: 100 nM) of 1.76 °C and a melting temperature shift (MBE1 concentration: 1 uM) of 1.17 °C.

For NT5DC2 (UniProt Q9H857), the melting temperature shift (MBE1 concentration: 100 nM) was -1.31 °C and the melting temperature shift (MBE1 concentration: 1 uM) was -0.154 °C.

TDRD3 (UniProt Q9H7E2) gave a melting temperature shift (MBE1 concentration: 100 nM) of 1.04 °C and a melting temperature shift (MBE1 concentration: 1 uM) of -0.0305 °C.

TAOK3 (UniProt Q9H2K8) gave a melting temperature shift (MBE1 concentration: 100 nM) of -2.29 °C and a melting temperature shift (MBE1 concentration: 1 uM) of -0.55 °C.

Target FAM96A (UniProt Q9H5X1) has a melting temperature shift (MBE1 concentration: 100 nM) of -2.45 °C and a melting temperature shift (MBE1 concentration: 1 uM) of -1.17 °C.

Target KAT8 (UniProt Q9H7Z6) has a melting temperature shift (MBE1 concentration: 100 nM) of -1.3 °C and a melting temperature shift (MBE1 concentration: 1 uM) of 0.032 °C.

Work on ASCC2 (UniProt Q9H1I8) yielded a melting temperature shift (MBE1 concentration: 100 nM) of -0.55 °C and a melting temperature shift (MBE1 concentration: 1 uM) of -0.212 °C.

Target WNK1 (UniProt Q9H4A3) has a melting temperature shift (MBE1 concentration: 100 nM) of -0.387 °C and a melting temperature shift (MBE1 concentration: 1 uM) of -0.239 °C.

In the case of SLC25A32 (UniProt Q9H2D1), the melting temperature shift (MBE1 concentration: 100 nM) is reported as -1.24 °C and the melting temperature shift (MBE1 concentration: 1 uM) is reported as -1.28 °C.

In the case of UniProt Q9GZM8, the melting temperature shift (MBE1 concentration: 100 nM) is reported as 1.14 °C and the melting temperature shift (MBE1 concentration: 1 uM) is reported as 1.34 °C.

For CLPB (UniProt Q9H078), the melting temperature shift (MBE1 concentration: 100 nM) was -0.483 °C and the melting temperature shift (MBE1 concentration: 1 uM) was 0.475 °C.

Target LHPP (UniProt Q9H008) has a melting temperature shift (MBE1 concentration: 100 nM) of -2.9 °C and a melting temperature shift (MBE1 concentration: 1 uM) of 0.354 °C.

UniProt Q9H116 showed a melting temperature shift (MBE1 concentration: 100 nM) of -0.765 °C and a melting temperature shift (MBE1 concentration: 1 uM) of 2.63 °C.

RACGAP1 (UniProt Q9H0H5) was tested, and the melting temperature shift (MBE1 concentration: 100 nM) was -1.54 °C and the melting temperature shift (MBE1 concentration: 1 uM) was -0.847 °C.

UniProt Q9H0R1 was tested, and the melting temperature shift (MBE1 concentration: 100 nM) was 1.11 °C and the melting temperature shift (MBE1 concentration: 1 uM) was -1.84 °C.

In the case of RBSN (UniProt Q9H1K0), the melting temperature shift (MBE1 concentration: 100 nM) is reported as -0.895 °C and the melting temperature shift (MBE1 concentration: 1 uM) is reported as -0.885 °C.

PARL (UniProt Q9H300) showed a melting temperature shift (MBE1 concentration: 100 nM) of 0.171 °C and a melting temperature shift (MBE1 concentration: 1 uM) of 1.52 °C.
